Measured values reported in PubChem BioAssay AID504834 (National Center for Advancing Translational Sciences (NCATS), 2011).
The campaign covered roughly 320,000 compounds. About 22,000 (6.9%) were called active. Inconclusive results, whose numbers are uncertain, are shown with a selection of clear calls. The call rests on the fitted dose curve; in most records, active means well fitted inhibition curve with a large enough effect; inconclusive means small, poorly fitted or top-dose-only effect, or another doubt; inactive means no such curve, though single readings can be large or run the other way. Where the call is inconclusive, the potency comes from a doubtful curve fit.

Assay: Primary qHTS for delayed death inhibitors of the malarial parasite plastid, 96 hour incubation
Details: P. falciparum luciferase reporter growth; series mostly up to 28.7 µM
Method in brief: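 Infected RBCs, 2% Hct / 0.05% parasitemia final; luciferase-reporter P. falciparum; cpd 96 h, 37 C, 5% CO2; luciferase detection reagent; luminescence.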
On the % scale 0 is the no-effect control and ±100 the full control effect; potency means the concentration at half of the fitted maximal effect.

Structure (SMILES)	Potency	activity change, negative = inhibition
CC1=NNC(=O)C1CCC(=O)N/N=C/c1c(Cl)cccc1Cl (centres undefined)	inconclusive: 9.28 µM [inhibitor, partial curve, poor fit]	
O=C1CC2(CCN(C(=O)c3cccc(Cl)c3)CC2)Oc2ccccc21	inconclusive: 10.4 µM [inhibitor, single point]	
CSc1nnc2n(C3CCCCC3)c(=O)c3c4c(sc3n12)CCCC4	inactive	
COc1cccc(N(CC(=O)NCCSc2ccc(Cl)cc2)S(C)(=O)=O)c1	inconclusive: 6.57 µM [inhibitor, partial curve]	
O=C(CSc1ncccn1)N/N=C/c1cccs1	inconclusive: 1.47 µM [inhibitor, partial curve, poor fit]	
COc1cc(OC)c(NC(=O)c2ccco2)cc1Cl	inconclusive: 9.28 µM [inhibitor, partial curve]	
CCCN1C2=NCCN2c2ccccc21	active: 4.15 µM	
c1ccc(-c2nnc(C(c3ccccc3)c3ccccc3)o2)cc1	active: 7.38 µM	
CCOCCCN1C(=O)CN(C2CCCCCC2)C(=O)C1c1ccc(OC)cc1 (centres undefined)	active: 0.828 µM	
Cc1ccc(S(=O)(=O)N2CCOCC2)cc1C(=O)N1CCCC1	inactive	
O=C(NCc1ccco1)/C(=C\c1cccs1)NC(=O)c1ccco1	active: 4.15 µM	
CC(=O)N1CCN(C(=O)CSc2nc3c(cnn3-c3ccccc3)c(=O)[nH]2)CC1		inactive: 4.86% [at 5.75 µM]
CC(=O)NC(c1ccc(C)cc1)c1cc([N+](=O)[O-])c2cccnc2c1O (centres undefined)	inconclusive: 18.5 µM [inhibitor, single point]	
CCN1CC=C2C(C#N)=C(N)C(C#N)(C#N)[C@H](c3cccc(OC)c3OC)[C@H]2C1	inconclusive: 18.5 µM [inhibitor, single point]	
O=C(COc1ccccc1)Nc1ccc2[nH]c(=O)[nH]c2c1	inactive	
Cc1oc(-c2ccccc2Cl)nc1CS(=O)(=O)CC(=O)N1CCOCC1	inactive	
CCOC(=O)CNC(=O)N1CCCC(N(C)CCc2ccccc2)C1 (centres undefined)	inactive	
COc1cc([C@@H]2CC=C(C(=O)O)[C@H](c3ccc(Cl)cc3)N2S(=O)(=O)c2ccc(C)cc2)cc(OC)c1OC	active: 9.28 µM	
O=C(CCS(=O)(=O)c1ccccc1)Nc1nc2ccc(F)cc2s1	inconclusive: 13.1 µM [inhibitor, single point]	
OCC1(CCc2ccccc2)CCCN(CCCC(F)(F)F)C1 (centres undefined)	inconclusive: 5.86 µM [inhibitor, partial curve, poor fit]	
COc1ccccc1CC(=O)N(CCC1=CCCCC1)c1c(N)n(Cc2ccccc2)c(=O)[nH]c1=O	inconclusive: 11.7 µM [inhibitor, single point]	
CCN(CC)CCN(C(=O)CCS(=O)(=O)c1ccccc1)c1nc2cc3c(cc2s1)OCO3	inactive	
Cc1ccc(NC(=O)c2ccc(Nc3ccccc3F)nc2)cc1	active: 5.86 µM	

Structure (SMILES)	Potency	activity change, negative = inhibition
Cc1ccc(/C=N/N2CCN(Cc3cccc4ccccc34)CC2)o1	inactive	
C#Cc1ccc([C@@H]2C=C(C(=O)N3CCOCC3)O[C@H](OCC)[C@H]2CCCO)cc1	inconclusive: 7.38 µM [inhibitor, single point]	
O=C(NCc1nc2ccccc2[nH]1)C1=C[C@@H](c2ccccc2)C[C@@H](OCc2ccc(CO)cc2)O1	inactive	
COc1ccccc1NC(=O)CCNS(=O)(=O)c1ccc2c(c1)CC(C)N2C(=O)C1CC1 (centres undefined)	inconclusive: 10.4 µM [inhibitor, single point]	
CC(C)(C)OC(=O)c1c(N)n(Cc2ccco2)c2nc3ccccc3nc12	inconclusive: 4.15 µM [inhibitor, single point]	
Cc1ccc(-n2c(=O)[nH]c3c(C(N)=O)nc(-c4ccc(C)o4)nc32)cc1	inactive	
Cc1cc(NC(=O)CCC(=O)N(Cc2cccnc2)C(C(=O)NC(C)(C)C)c2ccccc2Cl)no1 (centres undefined)	inconclusive: 1.17 µM [inhibitor, partial curve, poor fit]	
COC(=O)C1CCCN1C(=O)C12CC3CC(CC(C3)C1)C2 (centres undefined)	inconclusive: 18.5 µM [inhibitor, single point]	
O=C(NCC1COc2ccccc2O1)c1ccc(Cl)c(S(=O)(=O)N2CCCC2)c1 (centres undefined)	active: 9.28 µM	
O=C(CSc1nnnn1Cc1ccccc1)c1ccccc1	inconclusive: 11.7 µM [inhibitor, single point]	
CCOc1c(Cl)cc(Cl)cc1CNCCNCCO	inconclusive: 0.0465 µM [inhibitor, partial curve, poor fit]	
CCN(CC)CCN1C(=O)C(O)=C(C(=O)c2cccs2)C1c1ccccn1 (centres undefined)	inactive	
CC(C(=O)NCCc1ccccc1)N1c2cccc3cccc(c23)S1(=O)=O (centres undefined)	inconclusive: 18.5 µM [inhibitor, partial curve, poor fit]	
O=C(CCc1cccc(Cl)c1)NC1CCCN(Cc2ccccc2F)C1 (centres undefined)	inconclusive: 4.65 µM [inhibitor, single point]	
C=CCN=C1N[C@@H](c2cccc(C(F)(F)F)c2)C(C(=O)OC)=C(C)N1CC	active: 3.29 µM	
Cc1nn(CC(=O)Nc2ccc3c(c2)CCC3)c(C)c1[N+](=O)[O-]	inactive	
O=C(COc1ccccc1)N/N=C/c1sc(=O)n(Cc2cccc(C(=O)O)c2)c1Cl	inconclusive: 13.1 µM [inhibitor, partial curve]	
CC(=O)N1CCc2cc(S(=O)(=O)NC(Cc3ccccc3)C(=O)NCCN3CCCCC3C)ccc21 (centres undefined)	inconclusive: 8.28 µM [inhibitor, partial curve, poor fit]	
CCCc1ccc2oc(C(=O)N3CCNC(=O)C3CC(=O)OC)c(C)c2c1 (centres undefined)	inactive	
COc1ccc(-n2nc(C(=O)NCC(=O)N3CCOCC3)c3ccccc3c2=O)cc1Cl	inconclusive: 13.1 µM [inhibitor, partial curve]	
CCOC(=O)N1CCN(C(=O)CCn2c(=O)[nH]c3ccsc3c2=O)CC1	inconclusive: 18.5 µM [inhibitor, single point]	
COCCOC(=O)C1=C(C)NC(=O)NC1c1c(OC)ncnc1OC (centres undefined)	inconclusive: 0.0037 µM [inhibitor, full curve, poor fit]	
CCOc1ccc(N2C(=O)CC(N(CCc3ccc(OC)cc3)C(=O)/C=C/C(=O)O)C2=O)cc1 (centres undefined)	inconclusive: 13.1 µM [inhibitor, single point]	

Structure (SMILES)	Potency	activity change, negative = inhibition
CCc1ccc(NC(=O)C(=O)NNC(=O)c2cccs2)cc1	inconclusive: 8.28 µM [inhibitor, partial curve, poor fit]	
O=C(Nc1cc2c3c(c1)CC(=O)N3CCC2)c1ccccc1F	inactive	
COc1ccc(OCC(O)CN(CC(O)COc2ccc(OC)cc2)c2cccc(O)c2)cc1 (centres undefined)	inconclusive: 11.7 µM [inhibitor, single point]	
Nc1ncnc2c1ncn2CCN1CCOCC1	inconclusive: 14.7 µM [inhibitor, partial curve, poor fit]	
CCOc1ccc(S(=O)(=O)Nc2cc(SCC(=O)O)c(O)c3ccccc23)cc1	active: 1.85 µM	
CS(=O)(=O)N1CCc2nc(-c3ccccc3)sc2C1	inactive	
N#Cc1cc2cc3c(cc2nc1SCC(=O)N1CCOCC1)OCO3	inconclusive: 0.37 µM [inhibitor, full curve, poor fit]	
C[C@@H](NC(=O)[C@@H]1Cc2ccccc2CN1C(=O)OC(C)(C)C)C(=O)NC1CCCCC1	active: 13.1 µM	
COc1ccc(CN2C(=NC(=O)C3CCCCC3)SC3CS(=O)(=O)CC32)cc1 (centres undefined)	active: 14.7 µM	
O=C(O)C1C2C=CC(O2)C1C(=O)Nc1ccc2c(c1)OCCO2 (centres undefined)	inactive	
CCOC(=O)CN1CC23C=CC(O2)C(C(=O)Nc2ccc(F)cc2)C3C1=O (centres undefined)	inactive	
Cc1ccc2c(CN3CCN(S(=O)(=O)c4ccccc4C(F)(F)F)CC3)cc(=O)oc2c1	active: 9.28 µM	
COc1ccc2[nH]c3c(c2c1)CCN1C(=O)N([C@@H](C)C(=O)NCc2ccccc2)C(=O)[C@]31C	inconclusive: 18.5 µM [inhibitor, partial curve, poor fit]	
c1ccc(CNc2c3ccccc3nc3ccccc23)cc1	inconclusive: 14.7 µM [inhibitor, single point]	
COc1ccc(NC(=O)c2ccc3c(c2)N(C)CCS3)cc1	inconclusive: 18.5 µM [inhibitor, single point]	
Nc1nc2ccc(NC(=O)c3ccco3)cc2s1	inactive	
Cc1ccc2c(c1)C1CN(C)CCC1N2C(=O)COc1ccc(N(C)C(=O)C(C)(C)C)cc1 (centres undefined)	inconclusive: 18.5 µM [inhibitor, single point]	
Cc1onc(-c2c(Cl)cccc2Cl)c1C(=O)Nc1ccc(C(N)=O)cc1	inconclusive: 11.7 µM [inhibitor, partial curve]	
O=C1C=C(c2cc3ccccc3o2)C[C@@H](c2ccc(F)cc2)C1	inconclusive: 2.62 µM [inhibitor, single point]	
CCOC(=O)Cc1csc(NC(=O)c2ccc(OC)c(OC)c2)n1	inactive	
N#C/C(=C\c1ccc(-c2cccc([N+](=O)[O-])c2)o1)C(=O)N1CCOCC1	inconclusive: 13.1 µM [inhibitor, partial curve, poor fit]	
CC(C)C(=O)Nc1ccc2c(c1)nc(CCN1CCN(c3ccccc3)CC1)n2C	inconclusive: 9.28 µM [inhibitor, single point]	
COc1ccccc1N1CCN(S(=O)(=O)CCNC(=O)c2ccc(Br)o2)CC1	inconclusive: 4.15 µM [inhibitor, partial curve]	

Random excerpt: 3 entries already listed
Structure (SMILES)	Potency	activity change, negative = inhibition
CCOC(=O)Cc1csc(NC(=O)c2ccc(OC)c(OC)c2)n1	inactive	
c1ccc(CNc2c3ccccc3nc3ccccc23)cc1	inconclusive: 14.7 µM [inhibitor, single point]	
N#C/C(=C\c1ccc(-c2cccc([N+](=O)[O-])c2)o1)C(=O)N1CCOCC1	inconclusive: 13.1 µM [inhibitor, partial curve, poor fit]	
